Laboratory results reported in patent US20210260157A1.
These are yes or no findings as the source states them, for the method shown. Some binding calls cover weakened binding; strength is not graded here.

Protein sequences, listed by entry. Tags and fused reporters are not part of them. Residues count along the entry.
UniProt P40224, residues 22-89: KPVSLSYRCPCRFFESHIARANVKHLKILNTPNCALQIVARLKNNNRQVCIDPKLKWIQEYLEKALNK
UniProt P63158: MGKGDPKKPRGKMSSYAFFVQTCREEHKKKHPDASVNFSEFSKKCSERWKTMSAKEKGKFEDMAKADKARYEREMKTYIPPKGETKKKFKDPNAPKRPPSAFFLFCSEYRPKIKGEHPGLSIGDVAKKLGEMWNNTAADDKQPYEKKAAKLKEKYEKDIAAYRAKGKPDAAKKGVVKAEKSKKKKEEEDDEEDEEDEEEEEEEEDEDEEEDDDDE

Molecular target: CXCL12, endogenous, in mouse plasma (mouse) (UniProt P40224)
Test: hybrid sandwich ELISA on plasma (capture anti-CXCL12, detection anti-HMGB1)

- binding: binds
Substance: HMGB1 (High Mobility Group Box 1), endogenous, in mouse plasma (from UniProt P63158 1-215)
